{"sequences": {"note": "Amino acid sequences for entries named in this document (tags omitted).", "UniProt O00429": "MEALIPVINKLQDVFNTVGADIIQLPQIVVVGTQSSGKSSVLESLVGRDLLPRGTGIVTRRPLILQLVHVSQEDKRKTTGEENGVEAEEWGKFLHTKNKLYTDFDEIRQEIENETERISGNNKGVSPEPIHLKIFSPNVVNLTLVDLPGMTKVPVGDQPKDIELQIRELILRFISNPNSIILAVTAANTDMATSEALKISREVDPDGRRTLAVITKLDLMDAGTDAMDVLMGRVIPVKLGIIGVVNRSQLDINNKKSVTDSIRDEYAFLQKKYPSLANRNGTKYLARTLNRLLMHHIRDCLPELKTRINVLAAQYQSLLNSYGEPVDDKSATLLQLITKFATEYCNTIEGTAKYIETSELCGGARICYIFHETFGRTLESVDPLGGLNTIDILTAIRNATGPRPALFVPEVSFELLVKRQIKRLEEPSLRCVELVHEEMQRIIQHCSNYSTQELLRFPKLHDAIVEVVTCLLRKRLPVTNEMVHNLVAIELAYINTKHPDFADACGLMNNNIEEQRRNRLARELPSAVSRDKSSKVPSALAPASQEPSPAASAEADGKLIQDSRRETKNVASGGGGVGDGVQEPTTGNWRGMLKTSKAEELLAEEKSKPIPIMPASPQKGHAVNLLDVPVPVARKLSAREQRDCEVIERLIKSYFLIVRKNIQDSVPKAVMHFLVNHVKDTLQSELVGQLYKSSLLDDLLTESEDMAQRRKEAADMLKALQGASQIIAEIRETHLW"}, "source": "paper PMC5680924", "molecular_target": "T1, GST-tagged GBP2 (human) (UniProt P32456)", "T1 sequence": "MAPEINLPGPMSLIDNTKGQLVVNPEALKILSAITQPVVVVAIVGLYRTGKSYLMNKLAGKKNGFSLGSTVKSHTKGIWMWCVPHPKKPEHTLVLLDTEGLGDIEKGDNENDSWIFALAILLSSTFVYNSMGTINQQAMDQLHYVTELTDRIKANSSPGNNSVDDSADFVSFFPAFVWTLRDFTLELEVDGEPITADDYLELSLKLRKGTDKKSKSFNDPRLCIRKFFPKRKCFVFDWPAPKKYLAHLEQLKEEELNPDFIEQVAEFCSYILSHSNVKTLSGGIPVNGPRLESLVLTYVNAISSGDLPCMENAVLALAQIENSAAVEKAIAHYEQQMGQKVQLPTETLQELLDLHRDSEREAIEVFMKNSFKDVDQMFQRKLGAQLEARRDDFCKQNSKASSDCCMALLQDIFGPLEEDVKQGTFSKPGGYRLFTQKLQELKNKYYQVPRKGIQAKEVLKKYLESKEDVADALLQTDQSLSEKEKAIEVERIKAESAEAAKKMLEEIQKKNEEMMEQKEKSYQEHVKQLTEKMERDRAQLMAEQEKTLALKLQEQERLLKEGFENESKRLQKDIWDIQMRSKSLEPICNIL", "assay": "affinity purification with mass spectrometry; GST or GST-GBP2 bound to resin, incubated with cell lysate; silver-stained bands specific to GST-GBP2 excised, nanoLC-MS/MS; two independent experiments; only the target purified", "note": "These are yes or no findings as the source states them, for the method shown. Binding seen in cells or lysates may run through a third protein. Here binding means that the protein was enriched with, or labelled near, the bait; the list need not be complete. Sequences can lack the tags named with a protein."}
{"substance": "dynamin-related protein 1 (Drp1), endogenous (from UniProt O00429 1-736)", "values": [{"measurement": "binding", "value": "binds"}]}
